# Library screen at single concentrations

From ChEMBL document CHEMBL3988442, “University of Dundee, Small-Polar-MMV Screening Library” (2021).

Each number is a percent effect as filed. The controls that fix the scale are not given in the record; negative values are as filed. This is an unselected part of the compounds tested. Two or more numbers in one place are separate tests of the same structure; such repeats can differ widely.

Mtb glucose medium: 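Growth of Mycobacterium tuberculosis over 3 days (7H9 medium with glucose and tyloxapol); the read-out is not stated. Compounds at 50 µM. The record gives no direction; compounds that gave an IC50 in retests scored well above the rest, so higher reads as more growth inhibition. Of about 69,000 compounds tested this way, about 760 (1.1%) reached 50% or more in at least one test.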
Mtb cholesterol medium: 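Growth of Mycobacterium tuberculosis over 4 days (cholesterol / DPPC medium with tyloxapol); the read-out is not stated. Compounds at 50 µM. The record gives no direction; compounds that gave an IC50 in retests scored well above the rest, so higher reads as more growth inhibition. Size under these conditions: about 69,000 compounds, about 370 of them at 50% or above in at least one test.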

{"compound": "Cn1ccnc1CN1CC[C@H](O)[C@@H](n2ccc(=O)[nH]c2=O)CC1", "Mtb glucose medium": -1.188, "Mtb cholesterol medium": -14.64}
{"compound": "CCC(C(=O)N1CCN(S(=O)(=O)N2CCCC2)CC1)n1cccn1", "stereo": "configuration not stated", "Mtb glucose medium": -17.92, "Mtb cholesterol medium": 2.33}
{"compound": "COCCN(Cc1c(C)nn(C)c1C)C(=O)C1COc2ccccc2C1", "stereo": "configuration not stated", "Mtb glucose medium": "11.71 and 6.777", "Mtb cholesterol medium": "2.773 and 1.64"}
{"compound": "CCN(CC)C1COc2c(cc(Br)c(C)c2C)C1=O", "stereo": "configuration not stated", "Mtb glucose medium": -0.7854, "Mtb cholesterol medium": -7.383}
{"compound": "OC(COc1ccc2c(c1)OCO2)CN1CC(n2cccn2)C1", "stereo": "configuration not stated", "Mtb glucose medium": 10.19, "Mtb cholesterol medium": -1.413}
{"compound": "CN(C)C(C(=O)N1CC(Oc2ccccc2F)C1)c1ccccc1F", "stereo": "configuration not stated", "Mtb glucose medium": -28.38, "Mtb cholesterol medium": -30.78}
{"compound": "CC(C)NC(=O)CS(=O)(=O)Cc1cc(Cl)c2c(c1)OCCO2", "Mtb glucose medium": 2.238, "Mtb cholesterol medium": -7.665}
{"compound": "Nc1cc2c(nn1)CCN(C(=O)CCc1ccc3c(c1)OCO3)C2", "Mtb glucose medium": 3.318, "Mtb cholesterol medium": -6.066}
{"compound": "[H][C@@]12CN(C(=O)C3CCOC3)C[C@]1([H])C(=O)N(Cc1cccc(F)c1)C2", "stereo": "some centres not stated", "Mtb glucose medium": -4.05, "Mtb cholesterol medium": -5.496}
{"compound": "COCCC(=O)N1CCC(c2ccc3c(NC(C)C)n[nH]c3n2)C1", "stereo": "configuration not stated", "Mtb glucose medium": 9.81, "Mtb cholesterol medium": -0.8038}
{"compound": "O=C(O)C(F)(F)F.O=C(O)C(F)(F)F.[H][C@@]12C[C@@H](OCc3cccnc3)CN1CCN(C(=O)c1ccnnc1)C2", "Mtb glucose medium": -3.546, "Mtb cholesterol medium": "14.71 and -7.415"}
{"compound": "Cn1cc(C(=O)Nc2ccc3c(c2)N(C(=O)c2ccco2)CC3)nn1", "Mtb glucose medium": -5.617, "Mtb cholesterol medium": -28.28}
{"compound": "C[C@@H]1CN(CCOc2ccc(Cl)cc2)CC[C@@]1(O)C1CCOCC1", "Mtb glucose medium": 0.4731, "Mtb cholesterol medium": "-13.31 and -23.77"}
{"compound": "COc1ccc(C(=O)NCc2ccon2)cc1F", "Mtb glucose medium": -9.959, "Mtb cholesterol medium": -19.07}
{"compound": "Cc1ccc(C(=O)N2CCc3ncc(Cn4cccn4)n3CC2)cn1", "Mtb glucose medium": -3.448, "Mtb cholesterol medium": -19.59}
{"compound": "Cc1nc(N2CCN(C(=O)C(C)(C)C)CC2)cc(-n2cnc(C)c2C)n1", "Mtb glucose medium": 18.61, "Mtb cholesterol medium": -4.566}
{"compound": "Cc1nnc(NC(=O)CN(C)C2CCCN(c3cccnn3)C2)s1", "stereo": "configuration not stated", "Mtb glucose medium": -5.146, "Mtb cholesterol medium": 11.2}
{"compound": "Cc1ncsc1C(=O)N1CCC(c2ccc3c(NC(C)C)n[nH]c3n2)C1", "stereo": "configuration not stated", "Mtb glucose medium": 19.91, "Mtb cholesterol medium": 21.93}
{"compound": "CCN(CC)C(=O)CCNc1cncc(-n2nc(C)cc2C)n1", "Mtb glucose medium": 22.67, "Mtb cholesterol medium": 7.484}
{"compound": "CCC(CC)c1cc(CNC(=O)N2CCCN(C(C)=O)CC2)on1", "Mtb glucose medium": "6.634 and 5.279", "Mtb cholesterol medium": 10.53}
{"compound": "NC(=O)[C@@H]1Cc2ccccc2CN1CCC(=O)N1CCOCC1", "Mtb glucose medium": "2.941 and 2.456", "Mtb cholesterol medium": -10.24}
{"compound": "O=C(CN1C(=O)CCC1=O)N1CCC(S(=O)(=O)Cc2ccco2)CC1", "Mtb glucose medium": 38.97, "Mtb cholesterol medium": 27.73}
{"compound": "CS(=O)(=O)c1ccc(CNC2CCCN(c3cccnn3)C2)cc1", "stereo": "configuration not stated", "Mtb glucose medium": 7.165, "Mtb cholesterol medium": -19.39}
{"compound": "CC(C)COC(=O)N1CC(=O)N(CCc2ccccc2)CC(O)C1", "stereo": "configuration not stated", "Mtb glucose medium": 6.172, "Mtb cholesterol medium": -6.682}
{"compound": "Cc1nn(C)cc1-c1ccnc(N2CCSCC2)n1", "Mtb glucose medium": 7.071, "Mtb cholesterol medium": "-0.5127 and -8.422"}
{"compound": "O=C(O)C(F)(F)F.[H][C@@]12CCN(c3cccnc3)C[C@]1([H])CN(C(=O)c1cccc(C)c1)C2", "Mtb glucose medium": -24.12, "Mtb cholesterol medium": -26.34}
{"compound": "Cc1cc(C(=O)NCC(c2ccsc2)N(C)C)no1", "stereo": "configuration not stated", "Mtb glucose medium": "0.8907 and -3.631", "Mtb cholesterol medium": -13.15}
{"compound": "O=C(c1cccs1)N1CCC2(CC1)CCN(S(=O)(=O)C1CC1)CC2", "Mtb glucose medium": 17, "Mtb cholesterol medium": -5.153}
{"compound": "CCc1csc(C2CCCN(C(=O)c3ccc(=O)n(C)n3)C2)n1", "stereo": "configuration not stated", "Mtb glucose medium": "-2.285 and -3.674", "Mtb cholesterol medium": 9.922}
{"compound": "CCS(=O)(=O)N1CCC(c2nnc(Cn3cccn3)n2C2CC2)CC1", "Mtb glucose medium": "-1.922 and -1.203", "Mtb cholesterol medium": -15.67}
{"compound": "CCN1CC2(CC1=O)CN(Cc1cnn(C)c1)CCN(C(=O)N(C)C)C2.O=C(O)C(F)(F)F", "stereo": "configuration not stated", "Mtb glucose medium": -4.537, "Mtb cholesterol medium": -5.189}
{"compound": "Cc1nccn1C1CCCN(C(=O)c2ccc3c(c2)OCCCO3)C1", "stereo": "configuration not stated", "Mtb glucose medium": -9.933, "Mtb cholesterol medium": -8.858}